The text below walks through data of article PMC5636168.

Amino acid sequences for entries named in this document (tags omitted). A change or cut given only in a name is not applied to a line headed by its entry. Residues count along the entry.
UniProt Q56XV8, residues 33-575: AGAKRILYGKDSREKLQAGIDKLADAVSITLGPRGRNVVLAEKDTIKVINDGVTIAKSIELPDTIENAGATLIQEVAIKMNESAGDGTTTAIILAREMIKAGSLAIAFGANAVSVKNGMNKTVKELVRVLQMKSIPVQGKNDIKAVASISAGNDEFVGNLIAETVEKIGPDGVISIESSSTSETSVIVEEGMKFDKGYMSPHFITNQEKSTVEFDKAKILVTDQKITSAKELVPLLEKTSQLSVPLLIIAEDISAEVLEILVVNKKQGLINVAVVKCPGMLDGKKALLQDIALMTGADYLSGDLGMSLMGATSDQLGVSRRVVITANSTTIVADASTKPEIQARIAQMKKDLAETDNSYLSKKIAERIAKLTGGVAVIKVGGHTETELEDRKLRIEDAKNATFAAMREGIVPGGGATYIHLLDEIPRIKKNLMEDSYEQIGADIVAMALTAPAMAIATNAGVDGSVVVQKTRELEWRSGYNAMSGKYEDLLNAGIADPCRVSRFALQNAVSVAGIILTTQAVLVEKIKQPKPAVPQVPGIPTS
UniProt P21238, residues 47-586: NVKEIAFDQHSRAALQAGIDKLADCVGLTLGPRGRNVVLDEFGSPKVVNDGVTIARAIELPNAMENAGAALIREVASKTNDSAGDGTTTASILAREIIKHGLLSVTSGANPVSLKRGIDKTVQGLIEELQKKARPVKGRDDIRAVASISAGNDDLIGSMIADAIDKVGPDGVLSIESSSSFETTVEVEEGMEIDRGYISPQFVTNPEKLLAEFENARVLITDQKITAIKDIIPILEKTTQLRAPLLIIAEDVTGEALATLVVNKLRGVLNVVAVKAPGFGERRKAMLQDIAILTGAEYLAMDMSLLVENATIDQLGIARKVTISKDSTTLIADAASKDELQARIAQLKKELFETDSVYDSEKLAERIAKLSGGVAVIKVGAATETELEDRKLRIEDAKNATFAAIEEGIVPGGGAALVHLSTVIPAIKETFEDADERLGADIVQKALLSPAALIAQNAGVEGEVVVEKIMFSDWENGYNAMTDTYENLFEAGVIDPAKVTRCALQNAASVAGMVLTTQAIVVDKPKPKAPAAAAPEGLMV
UniProt Q9LJE4: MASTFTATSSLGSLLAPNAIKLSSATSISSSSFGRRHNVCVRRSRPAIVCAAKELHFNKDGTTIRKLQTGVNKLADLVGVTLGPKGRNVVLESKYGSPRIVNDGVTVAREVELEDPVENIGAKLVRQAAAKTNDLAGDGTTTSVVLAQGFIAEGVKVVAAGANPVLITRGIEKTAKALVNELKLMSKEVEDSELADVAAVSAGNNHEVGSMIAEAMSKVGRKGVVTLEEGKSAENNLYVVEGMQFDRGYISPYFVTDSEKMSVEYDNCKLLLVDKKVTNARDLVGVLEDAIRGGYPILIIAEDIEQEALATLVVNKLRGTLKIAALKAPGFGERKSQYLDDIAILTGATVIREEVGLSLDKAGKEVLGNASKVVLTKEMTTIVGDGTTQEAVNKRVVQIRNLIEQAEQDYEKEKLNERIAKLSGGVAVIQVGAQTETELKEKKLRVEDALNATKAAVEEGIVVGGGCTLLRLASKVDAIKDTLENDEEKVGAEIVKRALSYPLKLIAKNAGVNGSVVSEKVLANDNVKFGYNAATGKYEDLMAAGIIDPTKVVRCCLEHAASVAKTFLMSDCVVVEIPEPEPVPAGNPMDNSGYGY
UniProt P21240: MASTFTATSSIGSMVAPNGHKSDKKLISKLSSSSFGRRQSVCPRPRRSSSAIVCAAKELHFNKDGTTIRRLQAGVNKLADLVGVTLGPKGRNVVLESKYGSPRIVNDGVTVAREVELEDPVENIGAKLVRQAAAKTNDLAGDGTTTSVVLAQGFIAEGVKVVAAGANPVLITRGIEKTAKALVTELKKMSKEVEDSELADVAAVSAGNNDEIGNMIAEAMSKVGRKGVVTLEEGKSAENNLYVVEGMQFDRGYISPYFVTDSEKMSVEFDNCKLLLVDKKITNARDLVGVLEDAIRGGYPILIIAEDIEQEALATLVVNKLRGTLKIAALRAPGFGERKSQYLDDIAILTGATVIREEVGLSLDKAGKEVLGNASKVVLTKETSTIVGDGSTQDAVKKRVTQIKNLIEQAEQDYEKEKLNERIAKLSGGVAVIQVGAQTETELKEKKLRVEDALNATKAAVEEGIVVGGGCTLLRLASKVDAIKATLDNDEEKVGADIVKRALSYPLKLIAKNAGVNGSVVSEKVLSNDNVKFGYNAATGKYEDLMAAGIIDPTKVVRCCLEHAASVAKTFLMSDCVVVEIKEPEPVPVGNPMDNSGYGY
UniProt C0Z361: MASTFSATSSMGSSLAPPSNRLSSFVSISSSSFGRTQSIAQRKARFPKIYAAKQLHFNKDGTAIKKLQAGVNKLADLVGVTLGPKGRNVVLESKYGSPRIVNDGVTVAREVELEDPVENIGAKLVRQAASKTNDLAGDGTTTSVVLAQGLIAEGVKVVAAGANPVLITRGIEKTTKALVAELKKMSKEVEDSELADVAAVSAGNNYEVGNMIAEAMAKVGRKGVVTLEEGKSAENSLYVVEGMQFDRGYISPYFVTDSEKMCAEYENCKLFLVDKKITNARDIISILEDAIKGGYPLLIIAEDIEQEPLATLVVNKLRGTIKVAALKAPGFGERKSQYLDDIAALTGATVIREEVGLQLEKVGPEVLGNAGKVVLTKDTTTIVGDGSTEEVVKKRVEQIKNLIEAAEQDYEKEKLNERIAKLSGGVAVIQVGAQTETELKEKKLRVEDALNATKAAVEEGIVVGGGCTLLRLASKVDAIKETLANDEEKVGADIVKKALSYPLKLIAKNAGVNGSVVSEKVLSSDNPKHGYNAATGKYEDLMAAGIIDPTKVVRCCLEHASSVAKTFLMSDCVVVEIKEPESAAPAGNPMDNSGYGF

These are yes or no findings as the source states them, for the method shown. Binding calls can cover weak binding; strength is not graded here.

Test [1] deals with Recombinant CPNA2 (without the transit peptide) (Arabidopsis thaliana) (UniProt Q56XV8). The test can be described thus: SEC; reconstitution: 15 μM Cpn60α, 15 μM Cpn60β and 10 μM Cpn20 in 50 mM Tris-HCl pH 8.0, 0.3 M NaCl, 10 mM MgCl2, 16 mM KCl, 2 mM DTT, 5 mM ATP, 2 h at 30°C; supernatant on an Enrich Size Exclusion Column 650, reconstituted Cpn60s collected; both purified.
For test [2], the target named is Recombinant CPNA1 (without the transit peptide) (Arabidopsis thaliana) (UniProt P21238). The test is described as above.

For the substance “Recombinant CPNB2 (without the transit peptide) (from UniProt Q9LJE4)”, the binding entry in test [1] and in test [2] was “binds” in each case.
In the case of “Recombinant CPNB1 (without the transit peptide) (from UniProt P21240)”, the binding entry in test [1] and in test [2] was “binds” throughout.
As for “Recombinant CPNB3 (without the transit peptide) (from UniProt C0Z361)”, the binding entry in test [1] is recorded as “binds”.
